## Results from one PubChem assay

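TC32 Ewing sarcoma cell viability, measured as CellTiter-Glo luminescence after 48 hours of compound exposure.
Potency comes from a dilution series (8 or 11 points) reaching about 46 µM at the top.
The value is the fitted potency for cell killing; a lower number means a more potent cytotoxic effect.
Calls follow NCATS curve-class scoring: active scores 40–100, inconclusive 1–39 for weak, partial or top-dose-only curves, inactive 0 for flat curves.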

Values are in nM.
Every entry below has the call inconclusive.
These entries are mostly ones the record files as inconclusive; other results of the assay are not listed here.
Potencies fitted to partial, single-point or poorly fitting curves are rough.
Some entries filed as inconclusive have a full curve.
Activity scores are not listed here.

| SMILES | potency (nM) | curve as filed |
|---|---|---|
| `Oc1cc(Cl)ccc1Oc1ccc(Cl)cc1Cl` | 44158 | cytotoxic, single point |
| `CCCCCCCCCCCCCCCC[N+](C)(C)C` | 23570 | cytotoxic, single point |
| `COc1ccc2c3c1O[C@H]1[C@@H](O)C=C[C@H]4[C@@H](C2)N(C)CC[C@@]341` | 67197 | cytotoxic, single point |
| `CC[C@]1(O)CC[C@H]2[C@@H]3CCC4=CCCC[C@@H]4[C@H]3CC[C@@]21C` | 33293 | cytotoxic, single point |
| `CO/C=C(/C(=O)OC)c1ccccc1Oc1cc(Oc2ccccc2C#N)ncn1` | 34026 | cytotoxic, single point |
| `CCC(OC(C)=O)C(CC(C)NC)(c1ccccc1)c1ccccc1` (stereo not shown) | 38612 | cytotoxic, partial curve, poor fit |
| `O=C(N/N=C/c1ccc([N+](=O)[O-])o1)c1ccc(O)cc1` | 29673 | cytotoxic, single point |
| `C[C@@H]1CN(CCCn2c3ccccc3c3ccccc32)C[C@H](C)N1` | 16686 | cytotoxic, single point |
| `C=CCON=C(C[C@H]1O[C@@H]2O[C@]3(C)CC[C@@H]4[C@H](C)CC[C@@H]([C@H]1C)[C@@]24OO3)[C@H]1O[C@@H]2O[C@]3(C)CC[C@H]4[C@H](C)CC[C@@H]([C@@H]1C)[C@@]24OO3` | 29403 | cytotoxic, single point |
| `COc1cc(C[C@@H](CO)[C@H](CO)Cc2ccc(O)c(OC)c2)ccc1O` | 32990 | cytotoxic, single point |
| `CN1CCCC(CC2c3ccccc3Sc3ccccc32)C1` (stereo not shown) | 16686 | cytotoxic, single point |
| `COC1=CC(=O)C[C@@H](C)[C@]12Oc1c(Cl)c(OC)cc(OC)c1C2=O` | 29673 | cytotoxic, single point |
| `CC(=O)N/N=C/c1ccc([N+](=O)[O-])o1` | 14871 | cytotoxic, partial curve, poor fit |
| `Oc1ccc(Cl)c2cccnc12` | 21007 | cytotoxic, single point |
| `COc1ccc([C@@H]2Sc3ccccc3NC(=O)[C@@H]2O)cc1` | 18722 | cytotoxic, partial curve, poor fit |
| `C[C@@H]1[C@@H](C(=O)C[C@H]2O[C@@H]3O[C@]4(C)CC[C@@H]5[C@H](C)CC[C@@H]([C@H]2C)[C@@]35OO4)O[C@@H]2O[C@]3(C)CC[C@H]4[C@H](C)CC[C@@H]1[C@@]24OO3` | 29403 | cytotoxic, single point |
| `CC[C@H]1C=CC=CC[C@@H](C)[C@H](O)[C@@](C)(O)C(=O)[C@@H](C)[C@H](O)[C@@H](C)C(=O)[C@@H](C)[C@H](O)[C@@H](C)C=CC(=O)O[C@@H]2[C@@H](C)[C@H](CC1)O[C@]1(CC[C@H](C)[C@H](C[C@@H](C)O)O1)[C@H]2C` | 3702 | cytotoxic, full curve |
| `COc1ccc2c(C(=O)c3ccc(Cl)cc3)c(C)n(CC(=O)O)c2c1` | 33293 | cytotoxic, single point |
| `CC(C)Cn1cnc2c(N)nc3ccccc3c21` | 16534 | cytotoxic, partial curve, poor fit |
| `Oc1cccc2cccnc12` | 67892 | cytotoxic, single point |
| `CCCCCC[C@H]1C(=O)O[C@H](C)[C@H](NC(=O)c2cccc(NC=O)c2O)C(=O)O[C@@H](C)[C@@H]1OC(=O)CC(C)C` | 5867 | cytotoxic, full curve |
| `CCOC(=O)[C@H](CCc1ccccc1)N[C@@H](C)C(=O)N1[C@@H](C(=O)O)C[C@H]2CCC[C@@H]21` | 18552 | cytotoxic, single point |

For reference, 2 entries once more:

- O=C(N/N=C/c1ccc([N+](=O)[O-])o1)c1ccc(O)cc1 | potency 29673 nM (cytotoxic, single point)
- CC[C@H]1C=CC=CC[C@@H](C)[C@H](O)[C@@](C)(O)C(=O)[C@@H](C)[C@H](O)[C@@H](C)C(=O)[C@@H](C)[C@H](O)[C@@H](C)C=CC(=O)O[C@@H]2[C@@H](C)[C@H](CC1)O[C@]1(CC[C@H](C)[C@H](C[C@@H](C)O)O1)[C@H]2C | potency 3702 nM (cytotoxic, full curve)

From PubChem BioAssay record AID1347089 (NCATS, 2019).